Laboratory results from PubChem BioAssay AID248 (DTP/NCI, 2004).
The list does not hold the whole screen: it is rich in T/C values a quarter to a half above the control, in often repeated tests (any T/C) and in doses without a T/C. Other doses and runs of a compound stand elsewhere. T/C is the treated group as % of the vehicle group. Some doses have a count of surviving animals in place of a T/C: the source files T/C as zero there, which appears to mark a toxic dose or a test without result, not a measured value. Some doses without a T/C left all or most animals alive at the check, yet need not have been tolerated: survival well below the control is almost never listed, so the zero probably covers shortened survival too. Survivors were counted at the toxicity check, usually on the fifth day, unless a day is given; later deaths do not show. Schedules are NCI's codes, read here as Q, the interval in days (D) or hours (H), X, the number of doses. Some schedule codes hold Z or #, which are not explained here. For survival time, the PubChem record calls one and a half times the control and up active, and a quarter to a half above the control has no call in these data; cut-offs in other NCI protocols can differ. Marks such as (2×) say how often a value occurs here. Some doses were run more than once; the results are listed from low to high. Some T/C values are followed by the survivors on the day toxicity was checked, most often the fifth; where none is given, no animal had died by that day.

Test system: L1210 leukemia ip in BDF1 mice, survival T/C
Assay: NCI In Vivo Anticancer Drug Screen. Data for tumor model L1210 Leukemia (intraperitoneal) in B6D2F1 (BDF1) mice
Details: T/C endpoint: mean survival time, higher T/C = longer survival
[1] = dose: 100.0 mg/kg/injection, schedule: Q04DX002 (ip), vehicle: saline
[2] = dose: 200.0 mg/kg/injection, schedule: Q01DX009 (ip), vehicle: saline
[3] = dose: 200.0 mg/kg/injection, schedule: Q01DX001 (ip), vehicle: saline
[4] = dose: 400.0 mg/kg/injection, schedule: Q04DX003 (ip), vehicle: saline
[5] = dose: 400.0 mg/kg/injection, schedule: Q04DX003 (ip), vehicle: water
[6] = dose: 400.0 mg/kg/injection, schedule: Q04DX003 (ip), vehicle: Klucel (hydroxypropylcellulose) (HPC)

## CCCCCCCC(=O)N(CC)CC
[1]
  T/C: 128 % of control
[2]
  survivor count: 0 of 3

## COc1ccc(OC)c2ncccc12
[3]
  survivor count: 0 of 6
dose: 400.0 mg/kg/injection, schedule: Q01DX001 (ip), vehicle: saline
  survivor count: 0 of 6

## O=C(Nc1ccc(Br)cc1)c1cc(Br)cc(Br)c1O
dose: 6.25 mg/kg/injection, schedule: Q04DX002 (ip), vehicle: saline
  T/C: 125 % of control
dose: 50.0 mg/kg/injection, schedule: Q04DX002 (ip), vehicle: saline
  survivor count: 3 of 3
[1]
  survivor count: 3 of 3

## O=C(C[N+]12CCC(O)C1C(CO)CC2)c1ccc(Br)cc1 (stereo not drawn)
[4]
  survivor count: 0 of 6

## O=[N+]([O-])/C=C/c1ccc([N+](=O)[O-])cc1Cl
dose: 75.0 mg/kg/injection, schedule: Q01DX009 (ip), vehicle: saline with Tween-80
  survivor count: 0 of 6
dose: 100.0 mg/kg/injection, schedule: Q04DX003 (ip), vehicle: saline with Tween-80
  survivor count: 3 of 6
dose: 115.0 mg/kg/injection, schedule: Q01DX009 (ip), vehicle: saline with Tween-80
  survivor count: 0 of 6
dose: 170.0 mg/kg/injection, schedule: Q01DX009 (ip), vehicle: saline with Tween-80
  survivor count: 0 of 6
dose: 200.0 mg/kg/injection, schedule: Q04DX003 (ip), vehicle: saline with Tween-80
  survivor count: 5 of 6

## CC(=O)Nc1ccc(C(=O)Nc2ccc(C3=NCCN3)cc2)cc1C(=O)Nc1ccc(C2=NCCN2)cc1
dose: 125.0 mg/kg/injection, schedule: Q01DX015 (ip), vehicle: carboxymethylcellulose (CMC)
  T/C: 141 % of control
dose: 500.0 mg/kg/injection, schedule: Q01DX015 (ip), vehicle: carboxymethylcellulose (CMC)
  survivor count: 1 of 6

## O=C(N/N=C/c1ccc(Cl)cc1Cl)c1cccc2ccccc12
[3]
  survivor count: 4 of 4

## N/C(=N\N=C\c1cccc2ccccc12)N/N=C/c1cccc2ccccc12
dose: 480.0 mg/kg/injection, schedule: Q01DX Z (ip), vehicle: methylcellulose (MC)
  survivor count: 2 of 6
dose: 650.0 mg/kg/injection, schedule: Q01DX Z (oral), vehicle: methylcellulose (MC)
  survivor count: 4 of 6
dose: 750.0 mg/kg/injection, schedule: Q01DX Z (oral), vehicle: methylcellulose (MC)
  survivor count: 3 of 6

## CCN(CC)COC(=O)C(C)(C)C
dose: 300.0 mg/kg/injection, schedule: Q01DX001 (ip), vehicle: carboxymethylcellulose (CMC)
  survivor count: 1 of 6

## CCCCCCCCCCCCCCCCCCCCCCCCCCCCCCCS
dose: 400.0 mg/kg/injection, schedule: Q01DX001 (ip), vehicle: other
  survivor count: 4 of 4

## CN(Cc1ccccc1)/N=N/c1nc[nH]c1C(N)=O
dose: 16.1 mg/kg/injection, schedule: Q01DX009 (ip), vehicle: saline with Tween-80, evaluated on day 5
  T/C: 104 and 109 % of control
dose: 16.1 mg/kg/injection, schedule: Q01DX009 (ip), vehicle: saline with Tween-80, evaluated on day 60
  T/C: 104 and 109 % of control
dose: 32.2 mg/kg/injection, schedule: Q01DX009 (ip), vehicle: saline with Tween-80, evaluated on day 5
  T/C: 114 and 121 % of control
dose: 32.2 mg/kg/injection, schedule: Q01DX009 (ip), vehicle: saline with Tween-80, evaluated on day 60
  T/C: 114 and 121 % of control
dose: 50.0 mg/kg/injection, schedule: Q01DX009 (ip), vehicle: acetone
  T/C: 134 % of control
dose: 50.0 mg/kg/injection, schedule: Q01DX009 (ip), vehicle: water
  T/C: 144 and 146 % of control
dose: 64.5 mg/kg/injection, schedule: Q01DX009 (ip), vehicle: saline with Tween-80, evaluated on day 5
  T/C: 137 % of control (2×)
dose: 64.5 mg/kg/injection, schedule: Q01DX009 (ip), vehicle: saline with Tween-80, evaluated on day 60
  T/C: 137 % of control (2×)
dose: 100.0 mg/kg/injection, schedule: Q01DX009 (ip), vehicle: saline with Tween-80
  T/C: 139 % of control
dose: 100.0 mg/kg/injection, schedule: Q01DX009 (ip), vehicle: saline
  T/C: 130 % of control
dose: 100.0 mg/kg/injection, schedule: Q04DX003 (ip), vehicle: water
  T/C: 125 % of control
dose: 129.0 mg/kg/injection, schedule: Q01DX009 (ip), vehicle: saline with Tween-80, evaluated on day 5
  T/C: 149 and 159 % of control
dose: 129.0 mg/kg/injection, schedule: Q01DX009 (ip), vehicle: saline with Tween-80, evaluated on day 60
  T/C: 150 and 159 % of control
[2]
  survivor count: 6 of 6
dose: 200.0 mg/kg/injection, schedule: Q04DX003 (ip), vehicle: water
  T/C: 132 % of control
dose: 258.0 mg/kg/injection, schedule: Q01DX009 (ip), vehicle: saline with Tween-80, evaluated on day 5
  T/C: 93 and 105 % of control
dose: 258.0 mg/kg/injection, schedule: Q01DX009 (ip), vehicle: saline with Tween-80, evaluated on day 60
  T/C: 93 % of control [9 of 10 alive]
dose: 258.0 mg/kg/injection, schedule: Q01DX009 (ip), vehicle: saline with Tween-80
  survivor count: 5 of 10
dose: 400.0 mg/kg/injection, schedule: Q01DX001 (ip), vehicle: water
  T/C: 128 % of control
dose: 400.0 mg/kg/injection, schedule: Q01DX009 (ip), vehicle: saline with Tween-80
  survivor count: 3 of 6
dose: 400.0 mg/kg/injection, schedule: Q01DX009 (ip), vehicle: saline
  survivor count: 2 of 6
dose: 400.0 mg/kg/injection, schedule: Q01DX009 (ip), vehicle: water
  survivor count: 6 of 10
[5]
  T/C: 146 % of control

## O=C1C(Br)=CC(=NCl)C=C1Br
dose: 25.0 mg/kg/injection, schedule: Q01DX009 (ip), vehicle: DMSO
  survivor count: 3 of 6
dose: 50.0 mg/kg/injection, schedule: Q04DX002 (ip), vehicle: DMSO
  survivor count: 1 of 3
dose: 100.0 mg/kg/injection, schedule: Q04DX002 (ip), vehicle: DMSO
  survivor count: 0 of 3
dose: 200.0 mg/kg/injection, schedule: Q04DX002 (ip), vehicle: DMSO
  survivor count: 0 of 3
dose: 400.0 mg/kg/injection, schedule: Q04DX002 (ip), vehicle: DMSO
  survivor count: 0 of 3

## O=C1C(O)=C(Cl)C(=O)C(OC2=C(Cl)C(=O)C(OC3=C(Cl)C(=O)C(OC4=C(Cl)C(=O)C(Cl)=C(Cl)C4=O)=C(Cl)C3=O)=C(Cl)C2=O)=C1Cl
[4]
  survivor count: 3 of 6

## CCc1ccccc1NC(=O)c1cccc(C(=O)Nc2ccccc2CC)c1
[6]
  survivor count: 5 of 6

## CC[CH2][Sn]([Cl])([Cl])[CH2]CC
dose: 4.0 mg/kg/injection, schedule: Q01DX009 (ip), vehicle: saline
  survivor count: 3 of 6
dose: 5.9 mg/kg/injection, schedule: Q01DX009 (ip), vehicle: saline
  survivor count: 0 of 6
dose: 9.0 mg/kg/injection, schedule: Q01DX009 (ip), vehicle: saline
  survivor count: 0 of 6
dose: 13.0 mg/kg/injection, schedule: Q01DX009 (ip), vehicle: saline
  survivor count: 0 of 6

## CC(=O)Nc1cc(N)cc(NC(C)=O)c1
[5]
  survivor count: 4 of 6

## c1ccn2nncc2c1
dose: 400.0 mg/kg/injection, schedule: Q01DX001 (ip), vehicle: carboxymethylcellulose (CMC)
  survivor count: 0 of 4

## ClCc1ccc(CCl)c(Cl)c1
dose: 100.0 mg/kg/injection, schedule: Q04DX003 (ip), vehicle: Klucel (hydroxypropylcellulose) (HPC)
  survivor count: 2 of 6
dose: 200.0 mg/kg/injection, schedule: Q04DX003 (ip), vehicle: Klucel (hydroxypropylcellulose) (HPC)
  survivor count: 3 of 6
[6]
  survivor count: 1 of 6

## Cn1cnc([N+](=O)[O-])c1Sc1nc(N)nc2c1ncn2C1CC(O)C(CO)O1 (stereo not drawn)
dose: 12.5 mg/kg/injection, schedule: Q01DX005 (ip), vehicle: saline
  T/C: 134 % of control
dose: 25.0 mg/kg/injection, schedule: Q01DX005 (ip), vehicle: saline
  T/C: 125 % of control
dose: 50.0 mg/kg/injection, schedule: Q01DX005 (ip), vehicle: saline
  survivor count: 6 of 6
dose: 100.0 mg/kg/injection, schedule: Q01DX005 (ip), vehicle: saline
  survivor count: 6 of 6
dose: 200.0 mg/kg/injection, schedule: Q01DX005 (ip), vehicle: saline
  survivor count: 6 of 6
dose: 400.0 mg/kg/injection, schedule: Q01DX005 (ip), vehicle: saline
  T/C: 127 % of control [5 of 6 alive]

## c1cc(CCc2ccncc2)ccn1
dose: 200.0 mg/kg/injection, schedule: Q04DX003 (ip), vehicle: saline
  survivor count: 1 of 3
[4]
  survivor count: 0 of 3
